Assay results published in US8372951B2, “Cell penetrating peptides for intracellular delivery” (National Tsing Hua University, priority 2010, dated 2013).

System: zebrafish larva
Test: In vivo delivery in zebrafish larva, fluorescence microscopy

For “FITC-ECP(32-41): fluorochrome-tagged peptide, FITC-labeled ECP(32-41) (SEQ ID NO: 1) (NYRWRCKNQN; N-terminal FITC label; ECP(32-41))”, the “fluorescent signal in larva after microinjection” value (72 hpf larva, 5 μM injected into circulation, 2 days after injection) was “clearly detected” and the “fluorescent signal inside larva after soaking” value (7 day larva soaked in water with 1 μM for 1 day, then fresh water for two days) was “Evident fluorescent signal inside the larva”.
